Some of the results follow. The data scatter; read single values as rough.

Sequences of proteins named here, by UniProt entry; tags and fusion partners are left off. A change or cut given only in a name is not applied to a line headed by its entry. Residues count along the entry.
UniProt P49711, 573-592: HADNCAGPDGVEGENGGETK
UniProt Q9NUI1: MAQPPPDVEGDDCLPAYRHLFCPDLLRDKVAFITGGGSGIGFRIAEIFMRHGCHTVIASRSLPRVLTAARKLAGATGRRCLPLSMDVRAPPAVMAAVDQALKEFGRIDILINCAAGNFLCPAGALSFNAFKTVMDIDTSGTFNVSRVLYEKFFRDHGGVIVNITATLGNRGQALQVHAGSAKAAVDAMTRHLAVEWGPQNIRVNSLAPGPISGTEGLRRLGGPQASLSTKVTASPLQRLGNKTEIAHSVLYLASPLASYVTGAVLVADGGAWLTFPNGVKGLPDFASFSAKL
UniProt Q14203, whole entry, looked up: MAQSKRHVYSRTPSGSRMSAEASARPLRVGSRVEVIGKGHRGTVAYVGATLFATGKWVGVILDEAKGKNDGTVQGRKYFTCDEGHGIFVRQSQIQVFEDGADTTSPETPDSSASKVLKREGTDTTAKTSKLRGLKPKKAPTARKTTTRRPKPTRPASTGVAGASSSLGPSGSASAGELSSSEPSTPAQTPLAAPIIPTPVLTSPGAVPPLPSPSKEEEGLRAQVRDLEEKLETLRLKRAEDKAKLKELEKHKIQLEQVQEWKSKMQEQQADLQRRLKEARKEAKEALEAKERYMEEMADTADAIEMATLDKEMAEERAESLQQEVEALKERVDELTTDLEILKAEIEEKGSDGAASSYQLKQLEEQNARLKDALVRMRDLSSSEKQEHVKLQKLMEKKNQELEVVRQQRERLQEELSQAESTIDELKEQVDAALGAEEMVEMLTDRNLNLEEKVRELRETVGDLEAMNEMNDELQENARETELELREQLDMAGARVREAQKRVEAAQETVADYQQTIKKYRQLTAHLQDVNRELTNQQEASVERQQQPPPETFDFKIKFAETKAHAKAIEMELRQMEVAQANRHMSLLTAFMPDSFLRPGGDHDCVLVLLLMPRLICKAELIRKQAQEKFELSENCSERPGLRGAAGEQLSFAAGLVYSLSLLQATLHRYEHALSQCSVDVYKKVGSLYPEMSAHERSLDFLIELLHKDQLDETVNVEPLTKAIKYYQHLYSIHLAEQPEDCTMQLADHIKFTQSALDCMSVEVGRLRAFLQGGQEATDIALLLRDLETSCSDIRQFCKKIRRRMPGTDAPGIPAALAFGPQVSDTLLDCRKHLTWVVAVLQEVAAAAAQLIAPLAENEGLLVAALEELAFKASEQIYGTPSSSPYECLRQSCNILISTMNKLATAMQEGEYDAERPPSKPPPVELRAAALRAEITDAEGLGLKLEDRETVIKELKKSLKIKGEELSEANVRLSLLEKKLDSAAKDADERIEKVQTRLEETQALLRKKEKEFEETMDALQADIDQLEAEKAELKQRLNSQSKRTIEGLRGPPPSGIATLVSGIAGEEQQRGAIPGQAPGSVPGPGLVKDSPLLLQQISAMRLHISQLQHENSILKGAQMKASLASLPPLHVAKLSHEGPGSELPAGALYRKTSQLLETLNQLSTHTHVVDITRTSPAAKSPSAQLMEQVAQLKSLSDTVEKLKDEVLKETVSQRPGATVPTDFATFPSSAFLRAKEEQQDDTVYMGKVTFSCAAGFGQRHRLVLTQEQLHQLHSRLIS
UniProt Q12996: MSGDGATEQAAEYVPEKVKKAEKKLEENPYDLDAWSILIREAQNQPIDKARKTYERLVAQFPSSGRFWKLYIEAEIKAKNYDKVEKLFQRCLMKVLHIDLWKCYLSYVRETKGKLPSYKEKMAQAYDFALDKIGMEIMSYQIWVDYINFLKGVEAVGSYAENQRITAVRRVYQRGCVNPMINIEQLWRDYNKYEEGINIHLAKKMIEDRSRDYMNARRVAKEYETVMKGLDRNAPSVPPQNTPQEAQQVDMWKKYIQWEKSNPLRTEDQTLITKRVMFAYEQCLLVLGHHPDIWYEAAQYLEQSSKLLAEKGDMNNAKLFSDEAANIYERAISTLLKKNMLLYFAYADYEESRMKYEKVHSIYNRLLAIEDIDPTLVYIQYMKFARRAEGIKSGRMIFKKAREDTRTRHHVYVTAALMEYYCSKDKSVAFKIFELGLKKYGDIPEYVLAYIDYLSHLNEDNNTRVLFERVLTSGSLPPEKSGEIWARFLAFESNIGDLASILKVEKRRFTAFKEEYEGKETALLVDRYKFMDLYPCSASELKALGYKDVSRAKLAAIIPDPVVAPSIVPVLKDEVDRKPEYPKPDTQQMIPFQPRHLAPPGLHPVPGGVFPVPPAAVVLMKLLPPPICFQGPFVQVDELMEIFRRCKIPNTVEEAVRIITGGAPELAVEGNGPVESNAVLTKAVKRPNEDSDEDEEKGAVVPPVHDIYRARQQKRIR
UniProt Q9NY93: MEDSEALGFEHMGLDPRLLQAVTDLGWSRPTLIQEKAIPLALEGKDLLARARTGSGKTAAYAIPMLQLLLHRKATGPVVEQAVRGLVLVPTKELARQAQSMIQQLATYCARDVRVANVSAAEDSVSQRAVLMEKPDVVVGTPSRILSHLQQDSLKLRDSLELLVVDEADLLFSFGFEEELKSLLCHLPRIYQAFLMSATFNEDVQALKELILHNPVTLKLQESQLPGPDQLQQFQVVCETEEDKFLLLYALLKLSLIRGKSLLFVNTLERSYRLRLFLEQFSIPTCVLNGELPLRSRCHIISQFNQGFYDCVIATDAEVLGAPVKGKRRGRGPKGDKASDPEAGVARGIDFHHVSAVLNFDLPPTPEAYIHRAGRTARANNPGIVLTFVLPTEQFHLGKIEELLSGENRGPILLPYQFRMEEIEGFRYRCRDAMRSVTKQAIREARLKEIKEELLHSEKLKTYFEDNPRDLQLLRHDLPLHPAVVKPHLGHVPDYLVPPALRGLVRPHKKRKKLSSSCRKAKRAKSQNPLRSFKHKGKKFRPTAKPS
UniProt O75935, 129-148: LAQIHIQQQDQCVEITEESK
UniProt Q13617, whole entry, looked up: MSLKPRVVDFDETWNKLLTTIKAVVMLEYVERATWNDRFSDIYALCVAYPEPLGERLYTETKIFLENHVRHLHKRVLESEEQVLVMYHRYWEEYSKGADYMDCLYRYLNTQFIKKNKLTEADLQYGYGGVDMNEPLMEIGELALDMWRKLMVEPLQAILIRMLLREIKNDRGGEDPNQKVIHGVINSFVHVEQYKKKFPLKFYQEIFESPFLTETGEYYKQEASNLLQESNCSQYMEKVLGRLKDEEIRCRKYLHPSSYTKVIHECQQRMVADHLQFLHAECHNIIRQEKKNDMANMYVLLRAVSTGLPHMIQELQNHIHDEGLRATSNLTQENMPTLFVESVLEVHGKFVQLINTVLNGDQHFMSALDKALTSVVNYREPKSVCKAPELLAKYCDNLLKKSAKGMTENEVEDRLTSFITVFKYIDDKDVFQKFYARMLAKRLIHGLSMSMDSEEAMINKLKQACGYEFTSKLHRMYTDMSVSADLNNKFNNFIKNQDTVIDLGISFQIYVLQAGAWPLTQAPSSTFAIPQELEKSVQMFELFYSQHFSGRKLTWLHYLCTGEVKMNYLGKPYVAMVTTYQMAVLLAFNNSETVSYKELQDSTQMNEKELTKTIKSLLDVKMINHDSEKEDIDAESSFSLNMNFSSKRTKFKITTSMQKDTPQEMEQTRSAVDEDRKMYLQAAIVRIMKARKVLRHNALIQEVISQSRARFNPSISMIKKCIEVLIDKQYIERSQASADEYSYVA
UniProt Q16527: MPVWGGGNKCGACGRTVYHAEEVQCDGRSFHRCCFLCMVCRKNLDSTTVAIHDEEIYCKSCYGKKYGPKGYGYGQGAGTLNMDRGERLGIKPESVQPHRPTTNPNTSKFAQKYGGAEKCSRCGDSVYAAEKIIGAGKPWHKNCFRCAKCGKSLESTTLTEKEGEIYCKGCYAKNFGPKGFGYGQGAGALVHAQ
UniProt O75718: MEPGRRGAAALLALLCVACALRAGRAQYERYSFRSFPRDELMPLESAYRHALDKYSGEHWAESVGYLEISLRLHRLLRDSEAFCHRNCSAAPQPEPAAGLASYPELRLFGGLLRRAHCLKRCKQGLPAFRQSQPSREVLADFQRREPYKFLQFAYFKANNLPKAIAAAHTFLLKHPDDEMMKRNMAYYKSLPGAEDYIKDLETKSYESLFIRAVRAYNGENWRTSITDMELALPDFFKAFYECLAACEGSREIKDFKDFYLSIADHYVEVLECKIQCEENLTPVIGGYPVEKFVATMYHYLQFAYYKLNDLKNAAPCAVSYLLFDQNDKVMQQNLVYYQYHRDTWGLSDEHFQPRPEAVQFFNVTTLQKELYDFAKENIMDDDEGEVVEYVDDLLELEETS
UniProt P35659: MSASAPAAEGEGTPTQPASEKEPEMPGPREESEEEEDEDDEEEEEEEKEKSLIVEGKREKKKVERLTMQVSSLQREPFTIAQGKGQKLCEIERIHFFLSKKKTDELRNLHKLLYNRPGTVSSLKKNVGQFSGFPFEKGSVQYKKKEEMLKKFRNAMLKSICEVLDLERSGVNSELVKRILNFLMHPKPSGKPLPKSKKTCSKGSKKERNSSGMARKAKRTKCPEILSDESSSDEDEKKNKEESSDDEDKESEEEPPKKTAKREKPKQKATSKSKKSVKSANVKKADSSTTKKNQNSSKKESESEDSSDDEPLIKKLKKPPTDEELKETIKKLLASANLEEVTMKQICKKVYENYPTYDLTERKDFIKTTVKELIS
UniProt P01034: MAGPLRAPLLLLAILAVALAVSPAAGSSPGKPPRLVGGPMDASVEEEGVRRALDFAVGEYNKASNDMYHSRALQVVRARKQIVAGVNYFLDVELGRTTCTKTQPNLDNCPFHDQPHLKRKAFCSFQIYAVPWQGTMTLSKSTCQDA
UniProt Q9UHI6: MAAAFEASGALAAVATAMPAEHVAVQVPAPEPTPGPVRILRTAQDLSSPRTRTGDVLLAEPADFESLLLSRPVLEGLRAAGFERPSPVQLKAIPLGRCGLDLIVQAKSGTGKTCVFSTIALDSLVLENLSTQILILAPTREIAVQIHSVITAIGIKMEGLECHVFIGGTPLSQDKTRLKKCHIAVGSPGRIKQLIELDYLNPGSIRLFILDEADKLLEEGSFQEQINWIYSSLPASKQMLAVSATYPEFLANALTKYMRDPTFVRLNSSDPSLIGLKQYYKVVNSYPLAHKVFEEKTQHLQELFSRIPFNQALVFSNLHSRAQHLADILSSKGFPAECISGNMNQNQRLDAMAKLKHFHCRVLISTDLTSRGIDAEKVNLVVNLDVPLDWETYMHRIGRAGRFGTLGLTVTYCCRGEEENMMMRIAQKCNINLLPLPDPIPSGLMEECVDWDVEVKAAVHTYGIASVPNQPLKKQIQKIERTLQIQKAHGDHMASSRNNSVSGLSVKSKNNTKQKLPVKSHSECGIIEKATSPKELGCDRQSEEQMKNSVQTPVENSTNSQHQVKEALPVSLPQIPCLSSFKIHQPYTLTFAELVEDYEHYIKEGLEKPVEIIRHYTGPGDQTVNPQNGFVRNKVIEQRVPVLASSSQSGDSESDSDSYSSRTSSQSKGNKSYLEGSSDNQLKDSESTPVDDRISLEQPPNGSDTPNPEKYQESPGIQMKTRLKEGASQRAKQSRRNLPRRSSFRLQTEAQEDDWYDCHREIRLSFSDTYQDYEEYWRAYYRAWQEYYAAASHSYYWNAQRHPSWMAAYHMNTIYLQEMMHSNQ
UniProt Q66K64: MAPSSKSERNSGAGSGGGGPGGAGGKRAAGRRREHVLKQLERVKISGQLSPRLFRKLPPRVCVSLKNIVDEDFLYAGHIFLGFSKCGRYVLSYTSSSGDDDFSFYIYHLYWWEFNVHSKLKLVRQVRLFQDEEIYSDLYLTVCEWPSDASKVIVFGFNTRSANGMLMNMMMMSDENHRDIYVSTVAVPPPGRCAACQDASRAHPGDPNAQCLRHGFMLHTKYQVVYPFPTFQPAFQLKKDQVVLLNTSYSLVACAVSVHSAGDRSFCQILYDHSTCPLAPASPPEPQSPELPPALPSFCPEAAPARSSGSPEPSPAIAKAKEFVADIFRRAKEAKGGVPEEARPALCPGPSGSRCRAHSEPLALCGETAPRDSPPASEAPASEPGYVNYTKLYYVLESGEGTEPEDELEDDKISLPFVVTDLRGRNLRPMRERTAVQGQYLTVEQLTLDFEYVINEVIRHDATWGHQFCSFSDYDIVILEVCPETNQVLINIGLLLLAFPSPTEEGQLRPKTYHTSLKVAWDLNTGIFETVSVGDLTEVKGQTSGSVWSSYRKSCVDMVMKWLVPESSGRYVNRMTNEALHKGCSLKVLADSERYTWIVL

Compound in this test: ClCC(=O)N[C@H]1CCCc2ccccc12
As to the kind of experiment: log2 mean competition ratio of IA-DTB cysteine labelling (DMSO/compound) (log2 ratio); higher = stronger cysteine engagement by compound. The following applies: 200 µM; treatment time: 4 h; cell line lysate: HEK293T. How it is done:
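IA-DTB competitive cysteine chemoproteomics in HEK293T RIPA lysate. Lysates were treated with compound 29 or 30 at 50 or 200 µM for 4 h, then IA-DTB (500 µM, 1 h), trypsin-digested, NeutrAvidin-enriched and analysed by diaPASEF. Competition ratio = intensity DMSO / intensity compound (n=4 treated, n=64 DMSO); binding: mean log2 CR ≥ 1 and p ≤ 0.05 plus QC filters. Target is the cysteine site.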
For the target CTCF C577 (UniProt P49711), the “log2 mean competition ratio” value is -0.158.

As for DARS1 C76, the “log2 mean competition ratio” value was -0.0819. On to DECR2 C22 (UniProt Q9NUI1), for which the “log2 mean competition ratio” value was -0.205. Under DCTN1 C791 (UniProt Q14203) stands -0.0343; under CSTF3 C646 (UniProt Q12996), 0.0496. With DDX56 C185 (UniProt Q9NY93), the “log2 mean competition ratio” value is -0.394. As to DCTN3 C140 (UniProt O75935), the “log2 mean competition ratio” value was -0.343.

Consider CUL2 C465 (UniProt Q13617), for which the “log2 mean competition ratio” value worked out at 0.134. Under CSRP2 C58 (UniProt Q16527) stands -0.253; under CRTAP C84 (UniProt O75718), 0.384.

With DEK C222 (UniProt P35659), the “log2 mean competition ratio” value is -0.11. As to CST3 C109 (UniProt P01034), the “log2 mean competition ratio” value was -0.0584. With DDX20 C181 (UniProt Q9UHI6) the figure was -0.0705; with DCAF15 C365 (UniProt Q66K64), 0.109.

Source of the values: the supplement of paper PMC11732987, “Enantioselective OTUD7B fragment discovery through chemoproteomics screening and high-throughput optimisation” (Communications Chemistry, 2025).
